Experimental data reported in patent US20230295323A1.
These are yes or no findings as the source states them, for the method shown. Some entries that bind do so weakly or less than the wild type.

Protein sequences, listed by entry. Tags and fused reporters are not part of them. Lines headed by an entry give the natural chain unless they say otherwise; changes in a name come on top. Residues count along the entry.
UniProt Q9Y5U5: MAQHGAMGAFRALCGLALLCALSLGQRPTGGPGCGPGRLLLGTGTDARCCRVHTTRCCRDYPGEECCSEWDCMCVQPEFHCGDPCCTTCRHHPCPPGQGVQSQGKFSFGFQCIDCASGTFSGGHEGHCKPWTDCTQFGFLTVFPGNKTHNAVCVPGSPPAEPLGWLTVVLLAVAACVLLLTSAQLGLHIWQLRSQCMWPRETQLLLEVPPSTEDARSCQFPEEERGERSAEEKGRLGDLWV
human GITR on cells (293T-GITR, Jurkat-hGITR / Jurkat-GITR, Jurkat-GITR-NF-kB, 293T-GITR-NFkb-luc, primary CD4 T cells): residues 26-241 of Q9Y5U5
human GITR (ECD)-mFc: residues 26-162 of Q9Y5U5

Experiments:
[1] = molecular target: human GITR on cells (293T-GITR, Jurkat-hGITR / Jurkat-GITR, Jurkat-GITR-NF-kB, 293T-GITR-NFkb-luc, primary CD4 T cells) (human) (UniProt Q9Y5U5); test: FACS on Jurkat-GITR cells (FIG. 2)
[2] = molecular target: human GITR (ECD)-mFc (human) (UniProt Q9Y5U5); test: ELISA, plate-coated GITR-mFc (FIG. 1)
[3] = molecular target: human GITR (ECD)-mFc (human) (UniProt Q9Y5U5); test: ELISA, plate-coated GITR-mFc

Measured: binding

B1: 3F5 (humanized) -hIgG1 (antibody, V domains shown)
VH: QVQLVQSGAEVKKPGASVKVSCKASGYTFTDHYMHWVRQAPGQGLEWIGDINPNSGGTINNQNFKGRATLTVDKSISTAYMELSRLRSDDTAVYYCARGFSGLAYWGQGTLVTVSS
VL: DIVMTQTPLSSPVTLGQPASISCKSSQSLLDRDGKTYLNWLQQRPGQPPRRLIYLVSILDSGVPDRFSGSGAGTDFTLKISRVEAEDVGVYYCWQGTHFPWTFGQGTKLEIKR
binds: all assays above
